Plain letter strings leave the end groups untold. One purity is given for all peptides; the source may state it once.
Experiment: general procedure: Fmoc solid-phase peptide synthesis; PEG-PS; Fmoc/tBu protected activated esters
Conditions: whole synthesis, reverse phase HPLC, acetate or chloride salts

Final HPLC purity, >90%:
AGWLADGSLRYPI
AGWLADRSVRYPI
AGWLSDGSVQYPI
PKFVKQNTLKLAT

— patent publication US20020177554A1 (Akzo Nobel N.V., priority 1995, published 2002)
